# Measured values published in the supplement of paper PMC8728848.
# The other results are listed elsewhere or left out.
# Experiments:
# Experiment in all cases: glycan array binding signal (z-score within array); higher = stronger binding
# Conditions in all cases: glycan notation: IUPAC condensed, linker removed
# [1] = biological target: Fuc(a1-2)[GalNAc(a1-3)]Gal(b1-3)GlcNAc(b1-3)GalNAc
# How it was run: (§1)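 The binding signal is a Z-score computed within each array. Data were drawn from 3228 arrays in the Consortium for Functional Glycomics database, restricted to those with a known protein sequence. Scores were averaged over arrays of the same protein sequence at different concentrations or buffers, and over linkers, and negative values can be taken as non-binding.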
# [2] = biological target: Fuc(a1-2)[GalNAc(a1-3)]Gal(b1-3)GlcNAc(b1-6)GalNAc
# How it was run: as §1
# [3] = biological target: Fuc(a1-2)[GalNAc(a1-3)]Gal(b1-4)Glc
# How it was run: as §1
# [4] = biological target: Fuc(a1-2)[GalNAc(a1-3)]Gal(b1-4)GlcNAc
# How it was run: as §1
# [5] = biological target: Fuc(a1-2)[GalNAc(a1-3)]Gal(b1-4)GlcNAc(b1-2)Man
# How it was run: as §1
# [6] = biological target: Fuc(a1-2)[GalNAc(a1-3)]Gal(b1-4)GlcNAc(b1-2)Man(a1-3)[Fuc(a1-2)[GalNAc(a1-3)]Gal(b1-4)GlcNAc(b1-2)Man(a1-6)]Man(b1-4)GlcNAc(b1-4)GlcNAc
# How it was run: as §1
# [7] = biological target: Fuc(a1-2)[GalNAc(a1-3)]Gal(b1-4)GlcNAc(b1-2)Man(a1-3)[Fuc(a1-2)[GalNAc(a1-3)]Gal(b1-4)GlcNAc(b1-2)Man(a1-6)]Man(b1-4)GlcNAc(b1-4)[Fuc(a1-6)]GlcNAc
# How it was run: as §1
# [8] = biological target: Fuc(a1-2)[GalNAc(a1-3)]Gal(b1-4)GlcNAc(b1-3)Gal(b1-4)GlcNAc
# How it was run: as §1
# [9] = biological target: Fuc(a1-2)[GalNAc(a1-3)]Gal(b1-4)GlcNAc(b1-3)Gal(b1-4)GlcNAc(b1-3)Gal(b1-4)GlcNAc
# How it was run: as §1
# [10] = biological target: Fuc(a1-2)[GalNAc(a1-3)]Gal(b1-4)GlcNAc(b1-3)GalNAc
# How it was run: as §1
# [11] = biological target: Fuc(a1-2)[GalNAc(a1-3)]Gal(b1-4)GlcNAc(b1-3)[Fuc(a1-2)[GalNAc(a1-3)]Gal(b1-4)GlcNAc(b1-6)]GalNAc
# How it was run: as §1
# [12] = biological target: Fuc(a1-2)[GalNAc(a1-3)]Gal(b1-4)GlcNAc(b1-6)GalNAc
# How it was run: as §1
# [13] = biological target: Fuc(a1-2)[GalNAc(a1-3)]Gal(b1-4)[Fuc(a1-3)]GlcNAc
# How it was run: as §1
# [14] = biological target: Fuc(a1-2)[GalNAc(a1-3)]Gal(b1-4)[Fuc(a1-3)]GlcNAc(b1-3)GalNAc
# How it was run: as §1
# [15] = biological target: Fuc(a1-2)[GalNAc(a1-4)]Gal(b1-4)GlcNAc
# How it was run: as §1
# [16] = biological target: Fuc(a1-2)[GalNAc(b1-3)]Gal
# How it was run: as §1
# Fuc(a1-3)GlcNAc = biological target: Fuc(a1-3)GlcNAc
# How it was run: as §1
# [17] = biological target: Fuc(a1-3)[Gal(b1-4)]Glc6S
# How it was run: as §1
# [18] = biological target: Fuc(a1-3)[Gal(b1-4)]GlcNAc
# How it was run: as §1
# [19] = biological target: Fuc(a1-3)[Gal(b1-4)]GlcNAc(b1-2)Man
# How it was run: as §1
# [20] = biological target: Fuc(a1-3)[Gal(b1-4)]GlcNAc(b1-2)Man(a1-3)[Fuc(a1-3)[Gal(b1-4)]GlcNAc(b1-2)Man(a1-6)]Man(b1-4)GlcNAc(b1-4)GlcNAc
# How it was run: as §1
# [21] = biological target: Fuc(a1-3)[Gal(b1-4)]GlcNAc(b1-2)Man(a1-3)[Fuc(a1-3)[Gal(b1-4)]GlcNAc(b1-2)Man(a1-6)]Man(b1-4)GlcNAc(b1-4)[Fuc(a1-6)]GlcNAc
# How it was run: as §1
# [22] = biological target: Fuc(a1-3)[Gal(b1-4)]GlcNAc(b1-3)Gal(b1-3)[Fuc(a1-4)]GlcNAc
# How it was run: as §1
# [23] = biological target: Fuc(a1-3)[Gal(b1-4)]GlcNAc(b1-3)Gal(b1-4)[Fuc(a1-3)]GlcNAc
# How it was run: as §1
# [24] = biological target: Fuc(a1-3)[Gal(b1-4)]GlcNAc(b1-3)Gal(b1-4)[Fuc(a1-3)]GlcNAc(b1-3)Gal(b1-4)[Fuc(a1-3)]GlcNAc
# How it was run: as §1
# [25] = biological target: Fuc(a1-3)[Gal(b1-4)]GlcNAc(b1-3)GalNAc
# How it was run: as §1
# [26] = biological target: Fuc(a1-3)[Gal(b1-4)]GlcNAc(b1-6)GalNAc
# How it was run: as §1
# [27] = biological target: Fuc(a1-3)[Gal(b1-4)]GlcNAc(b1-6)[Gal(b1-3)GlcNAc(b1-3)]Gal(b1-4)Glc
# How it was run: as §1
# [28] = biological target: Fuc(a1-3)[Gal(b1-4)]GlcNAc6S
# How it was run: as §1
# [29] = biological target: Fuc(a1-3)[Gal3S(b1-4)]Glc
# How it was run: as §1
# [30] = biological target: Fuc(a1-3)[Gal3S(b1-4)]GlcNAc
# How it was run: as §1
# [31] = biological target: Fuc(a1-3)[Gal3S(b1-4)]GlcNAc6S
# How it was run: as §1
# [32] = biological target: Fuc(a1-3)[GalNAc(b1-4)]GlcNAc
# How it was run: as §1
# [33] = biological target: Fuc(a1-3)[GalNAc(b1-4)]GlcNAc6S
# How it was run: as §1
# Fuc(a1-4)GlcNAc = biological target: Fuc(a1-4)GlcNAc
# How it was run: as §1
# Fuc(b1-3)GlcNAc = biological target: Fuc(b1-3)GlcNAc
# How it was run: as §1
# Gal(a1-2)Gal = biological target: Gal(a1-2)Gal
# How it was run: as §1
# Gal(a1-3)Gal = biological target: Gal(a1-3)Gal
# How it was run: as §1
# Gal(a1-3)Gal(b1-3)GlcNAc = biological target: Gal(a1-3)Gal(b1-3)GlcNAc
# How it was run: as §1
# [34] = biological target: Gal(a1-3)Gal(b1-3)GlcNAc(b1-2)Man
# How it was run: as §1
# [35] = biological target: Gal(a1-3)Gal(b1-3)GlcNAc(b1-2)Man(a1-3)[Gal(a1-3)Gal(b1-3)GlcNAc(b1-2)Man(a1-6)]Man(b1-4)GlcNAc(b1-4)GlcNAc
# How it was run: as §1
# [36] = biological target: Gal(a1-3)Gal(b1-3)GlcNAc(b1-3)GalNAc
# How it was run: as §1
# [37] = biological target: Gal(a1-3)Gal(b1-3)GlcNAc(b1-6)GalNAc
# How it was run: as §1
# [38] = biological target: Gal(a1-3)Gal(b1-3)[Fuc(a1-4)]GlcNAc(b1-2)Man(a1-3)[Gal(a1-3)Gal(b1-3)[Fuc(a1-4)]GlcNAc(b1-2)Man(a1-6)]Man(b1-4)GlcNAc(b1-4)GlcNAc
# How it was run: as §1
# Gal(a1-3)Gal(b1-4)Glc = biological target: Gal(a1-3)Gal(b1-4)Glc
# How it was run: as §1
binder,measurement,setting,value
"CD34 (Homo sapiens), P28906 (protein) MGSSHHHHHHSSGLVPRGSHMSTSLATSPTKPYTSSSPILSDIKAEIKCSGIREVKLTQGICLEQNKTSSCAEFKKDRGEGLARVLCGEEQADADAGAQVCSLLLAQSEVRPQCLLLVLANRTEISSKLQLMKKHQSDLKKLGILDFTEQDVASHQSYSQKT",glycan array binding signal (z-score),[1],1.77
same,glycan array binding signal (z-score),[2],0.239
same,glycan array binding signal (z-score),[3],-0.052
same,glycan array binding signal (z-score),[4],-0.291
same,glycan array binding signal (z-score),[5],-0.118
same,glycan array binding signal (z-score),[6],0.429
same,glycan array binding signal (z-score),[7],0.295
same,glycan array binding signal (z-score),[8],-0.515
same,glycan array binding signal (z-score),[9],0.16
same,glycan array binding signal (z-score),[10],-0.285
same,glycan array binding signal (z-score),[11],-0.163
same,glycan array binding signal (z-score),[12],-1.19
same,glycan array binding signal (z-score),[13],-0.573
same,glycan array binding signal (z-score),[14],-0.048
same,glycan array binding signal (z-score),[15],-0.585
same,glycan array binding signal (z-score),[16],-0.335
same,glycan array binding signal (z-score),Fuc(a1-3)GlcNAc,-0.344
same,glycan array binding signal (z-score),[17],0.596
same,glycan array binding signal (z-score),[18],-0.304
same,glycan array binding signal (z-score),[19],-0.466
same,glycan array binding signal (z-score),[20],-0.434
same,glycan array binding signal (z-score),[21],0.286
same,glycan array binding signal (z-score),[22],-0.493
same,glycan array binding signal (z-score),[23],-0.418
same,glycan array binding signal (z-score),[24],-0.735
same,glycan array binding signal (z-score),[25],0.226
same,glycan array binding signal (z-score),[26],-0.245
same,glycan array binding signal (z-score),[27],-0.474
same,glycan array binding signal (z-score),[28],0.038
same,glycan array binding signal (z-score),[29],-0.194
same,glycan array binding signal (z-score),[30],0.027
same,glycan array binding signal (z-score),[31],0.434
same,glycan array binding signal (z-score),[32],0.021
same,glycan array binding signal (z-score),[33],0.563
same,glycan array binding signal (z-score),Fuc(a1-4)GlcNAc,0.624
same,glycan array binding signal (z-score),Fuc(b1-3)GlcNAc,-0.187
same,glycan array binding signal (z-score),Gal(a1-2)Gal,-0.315
same,glycan array binding signal (z-score),Gal(a1-3)Gal,0.754
same,glycan array binding signal (z-score),Gal(a1-3)Gal(b1-3)GlcNAc,0.398
same,glycan array binding signal (z-score),[34],0.084
same,glycan array binding signal (z-score),[35],0.337
same,glycan array binding signal (z-score),[36],-0.326
same,glycan array binding signal (z-score),[37],-0.355
same,glycan array binding signal (z-score),[38],0.079
same,glycan array binding signal (z-score),Gal(a1-3)Gal(b1-4)Glc,0.448

# Pulled one by one from the entries so far:
binder,measurement,setting,value
"CD34 (Homo sapiens), P28906 (protein) MGSSHHHHHHSSGLVPRGSHMSTSLATSPTKPYTSSSPILSDIKAEIKCSGIREVKLTQGICLEQNKTSSCAEFKKDRGEGLARVLCGEEQADADAGAQVCSLLLAQSEVRPQCLLLVLANRTEISSKLQLMKKHQSDLKKLGILDFTEQDVASHQSYSQKT",glycan array binding signal (z-score),[3],-0.052
same,glycan array binding signal (z-score),[23],-0.418
